Experimental data published in patent US20210393628A1, “COMPOSITIONS AND METHODS FOR MODULATING T CELL EXHAUSTION” (The Board of Trustees of the Leland Stanford Junior …, priority 2018, published 2021).
At least one compound was matched to its structure with a doubt left.

Experiments:
CAR T cells = details: co-cultured with tumor cells; cited from earlier work
CAR CD3z = details: after CAR crosslinking; cited from earlier work
T cells = details: in vivo treatment; cited from earlier work
[1] = system: healthy donor purified T cells transduced to express a CAR that tonically signals in the absence of antigen; details: collective analysis, three human subjects
[2] = system: tonically signaling CAR T cells; details: expanded in the presence of dasatinib, cited from earlier work
CAR-T cell = details: cited from earlier work

**Q.** For Cc1nc(Nc2ncc(C(=O)Nc3c(C)cccc3Cl)s2)cc(N2CCN(CCO)CC2)n1 [dasatinib], which activation and degranulation (CAR T cells) is on record?
**A.** attenuated

**Q.** What about the cytokine secretion (CAR T cells) of the same molecule?
**A.** fail to secrete cytokine

**Q.** And the “killing in response to tumor antigen” value (CAR T cells)?
**A.** attenuated killing

**Q.** And the “phosphorylation of CAR CD3z as well as distal signaling proteins” value (CAR CD3z)?
**A.** potently inhibits

**Q.** And the cell survival/proliferation (T cells)?
**A.** facilitates

**Q.** And the exhaustion marker expression (T cells)?
**A.** suppresses

**Q.** And the memory formation (T cells)?
**A.** augments

**Q.** What about the “CAR-T cell expression of GZMB, MAPRE2, NAMPT and SIGMAR1” value [1] of the same molecule?
**A.** decreased expression

**Q.** And the “CAR-T cell expression of POLDIP2, GSTK1 and STMN2” value [1]?
**A.** increased expression

**Q.** And the “capacity to form memory” value [2]?
**A.** retain the capacity to form memory

**Q.** What about the “cytokine secretion in response to tumor antigen” value [2] of the same molecule?
**A.** augmented

**Q.** What about the “canonical exhaustion marker expression” value ([2]; dose-dependent) of the same molecule?
**A.** reduction

**Q.** And the “CAR-T cell activation and anti-tumor function” value (CAR-T cell)?
**A.** potently inhibit
